Laboratory results from the supplement of paper PMC10849652.
The other results are listed elsewhere or left out.

Chains of the proteins cited; added tags and fusions are not shown. Lines headed by an entry give the natural chain unless they say otherwise; changes in a name come on top.
UniProt Q9UL46, whole entry, looked up: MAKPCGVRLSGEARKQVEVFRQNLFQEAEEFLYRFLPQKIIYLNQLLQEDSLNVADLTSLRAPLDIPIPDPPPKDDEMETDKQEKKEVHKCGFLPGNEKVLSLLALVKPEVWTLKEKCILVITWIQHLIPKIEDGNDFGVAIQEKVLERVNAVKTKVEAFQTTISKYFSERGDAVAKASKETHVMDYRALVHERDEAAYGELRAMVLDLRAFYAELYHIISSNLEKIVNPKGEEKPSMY
UniProt Q9NRG1: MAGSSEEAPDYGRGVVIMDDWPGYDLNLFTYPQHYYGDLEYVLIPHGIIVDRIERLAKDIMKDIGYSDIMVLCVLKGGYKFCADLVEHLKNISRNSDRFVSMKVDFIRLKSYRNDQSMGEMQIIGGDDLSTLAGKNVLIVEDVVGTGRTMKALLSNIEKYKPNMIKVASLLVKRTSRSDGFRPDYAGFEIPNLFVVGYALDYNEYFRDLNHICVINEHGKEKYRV
UniProt Q9H939: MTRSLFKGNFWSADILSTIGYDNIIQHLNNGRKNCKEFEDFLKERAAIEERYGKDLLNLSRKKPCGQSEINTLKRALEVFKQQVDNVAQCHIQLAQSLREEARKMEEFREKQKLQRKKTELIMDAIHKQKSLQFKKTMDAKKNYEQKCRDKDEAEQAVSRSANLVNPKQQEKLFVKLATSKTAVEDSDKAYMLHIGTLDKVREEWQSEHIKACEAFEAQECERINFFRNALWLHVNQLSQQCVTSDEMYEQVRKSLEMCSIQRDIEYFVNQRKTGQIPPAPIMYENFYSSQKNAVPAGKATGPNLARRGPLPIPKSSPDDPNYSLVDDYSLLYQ
UniProt Q9H7Z7: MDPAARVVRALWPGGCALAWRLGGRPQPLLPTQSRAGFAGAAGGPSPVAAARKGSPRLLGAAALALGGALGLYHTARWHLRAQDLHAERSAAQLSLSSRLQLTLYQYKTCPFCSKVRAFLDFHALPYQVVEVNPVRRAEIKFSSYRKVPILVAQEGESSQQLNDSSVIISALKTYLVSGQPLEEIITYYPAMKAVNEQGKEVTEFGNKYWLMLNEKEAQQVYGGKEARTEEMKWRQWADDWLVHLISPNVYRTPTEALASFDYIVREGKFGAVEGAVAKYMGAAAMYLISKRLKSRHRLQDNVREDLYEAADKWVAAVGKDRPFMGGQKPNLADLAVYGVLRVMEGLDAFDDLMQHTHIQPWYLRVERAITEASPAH
UniProt Q96BW5: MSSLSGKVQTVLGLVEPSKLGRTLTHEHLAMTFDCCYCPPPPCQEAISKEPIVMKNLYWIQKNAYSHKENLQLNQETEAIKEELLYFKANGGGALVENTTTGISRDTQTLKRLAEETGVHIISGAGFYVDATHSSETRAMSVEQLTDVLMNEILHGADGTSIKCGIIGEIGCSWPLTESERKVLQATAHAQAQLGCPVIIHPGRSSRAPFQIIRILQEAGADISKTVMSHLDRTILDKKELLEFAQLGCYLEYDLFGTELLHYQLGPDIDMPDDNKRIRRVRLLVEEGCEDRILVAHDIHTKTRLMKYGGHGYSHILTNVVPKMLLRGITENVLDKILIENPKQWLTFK
UniProt O00487, whole entry, looked up: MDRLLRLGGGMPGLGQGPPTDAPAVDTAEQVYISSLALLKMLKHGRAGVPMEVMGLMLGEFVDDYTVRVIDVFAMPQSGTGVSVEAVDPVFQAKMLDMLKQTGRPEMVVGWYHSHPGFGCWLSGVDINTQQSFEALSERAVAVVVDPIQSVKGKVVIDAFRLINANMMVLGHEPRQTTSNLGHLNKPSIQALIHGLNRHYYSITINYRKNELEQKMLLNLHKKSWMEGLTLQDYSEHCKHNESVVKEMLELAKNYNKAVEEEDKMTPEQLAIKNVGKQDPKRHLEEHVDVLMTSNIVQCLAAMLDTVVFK
UniProt Q05397, whole entry, looked up: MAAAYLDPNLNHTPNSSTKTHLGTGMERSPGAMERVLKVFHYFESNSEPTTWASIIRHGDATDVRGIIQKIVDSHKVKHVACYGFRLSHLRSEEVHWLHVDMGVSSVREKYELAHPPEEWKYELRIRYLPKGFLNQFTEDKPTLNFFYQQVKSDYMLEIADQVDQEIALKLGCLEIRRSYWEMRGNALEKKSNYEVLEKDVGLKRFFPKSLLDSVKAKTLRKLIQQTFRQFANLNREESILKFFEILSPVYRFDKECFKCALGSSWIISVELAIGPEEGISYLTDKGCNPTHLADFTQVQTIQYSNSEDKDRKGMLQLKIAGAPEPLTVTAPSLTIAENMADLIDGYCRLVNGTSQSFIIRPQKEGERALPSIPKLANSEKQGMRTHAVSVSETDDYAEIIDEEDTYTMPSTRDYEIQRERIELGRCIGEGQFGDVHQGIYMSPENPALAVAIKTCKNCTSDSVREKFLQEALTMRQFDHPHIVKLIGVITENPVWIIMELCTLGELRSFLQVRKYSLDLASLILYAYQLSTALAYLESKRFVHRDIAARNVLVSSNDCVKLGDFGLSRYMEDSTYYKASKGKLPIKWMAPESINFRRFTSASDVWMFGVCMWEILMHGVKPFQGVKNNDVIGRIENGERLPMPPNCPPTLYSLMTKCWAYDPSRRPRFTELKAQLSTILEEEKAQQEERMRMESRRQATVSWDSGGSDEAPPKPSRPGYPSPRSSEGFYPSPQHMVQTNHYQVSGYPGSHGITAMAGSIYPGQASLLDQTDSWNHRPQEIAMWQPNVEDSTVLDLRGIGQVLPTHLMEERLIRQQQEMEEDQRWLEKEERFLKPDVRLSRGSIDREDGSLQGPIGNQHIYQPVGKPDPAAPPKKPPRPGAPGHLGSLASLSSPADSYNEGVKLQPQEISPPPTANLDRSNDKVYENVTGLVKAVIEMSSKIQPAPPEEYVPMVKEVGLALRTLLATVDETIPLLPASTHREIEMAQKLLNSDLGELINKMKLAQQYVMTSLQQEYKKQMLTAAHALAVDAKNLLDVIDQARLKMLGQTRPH
UniProt P20742, whole entry, looked up: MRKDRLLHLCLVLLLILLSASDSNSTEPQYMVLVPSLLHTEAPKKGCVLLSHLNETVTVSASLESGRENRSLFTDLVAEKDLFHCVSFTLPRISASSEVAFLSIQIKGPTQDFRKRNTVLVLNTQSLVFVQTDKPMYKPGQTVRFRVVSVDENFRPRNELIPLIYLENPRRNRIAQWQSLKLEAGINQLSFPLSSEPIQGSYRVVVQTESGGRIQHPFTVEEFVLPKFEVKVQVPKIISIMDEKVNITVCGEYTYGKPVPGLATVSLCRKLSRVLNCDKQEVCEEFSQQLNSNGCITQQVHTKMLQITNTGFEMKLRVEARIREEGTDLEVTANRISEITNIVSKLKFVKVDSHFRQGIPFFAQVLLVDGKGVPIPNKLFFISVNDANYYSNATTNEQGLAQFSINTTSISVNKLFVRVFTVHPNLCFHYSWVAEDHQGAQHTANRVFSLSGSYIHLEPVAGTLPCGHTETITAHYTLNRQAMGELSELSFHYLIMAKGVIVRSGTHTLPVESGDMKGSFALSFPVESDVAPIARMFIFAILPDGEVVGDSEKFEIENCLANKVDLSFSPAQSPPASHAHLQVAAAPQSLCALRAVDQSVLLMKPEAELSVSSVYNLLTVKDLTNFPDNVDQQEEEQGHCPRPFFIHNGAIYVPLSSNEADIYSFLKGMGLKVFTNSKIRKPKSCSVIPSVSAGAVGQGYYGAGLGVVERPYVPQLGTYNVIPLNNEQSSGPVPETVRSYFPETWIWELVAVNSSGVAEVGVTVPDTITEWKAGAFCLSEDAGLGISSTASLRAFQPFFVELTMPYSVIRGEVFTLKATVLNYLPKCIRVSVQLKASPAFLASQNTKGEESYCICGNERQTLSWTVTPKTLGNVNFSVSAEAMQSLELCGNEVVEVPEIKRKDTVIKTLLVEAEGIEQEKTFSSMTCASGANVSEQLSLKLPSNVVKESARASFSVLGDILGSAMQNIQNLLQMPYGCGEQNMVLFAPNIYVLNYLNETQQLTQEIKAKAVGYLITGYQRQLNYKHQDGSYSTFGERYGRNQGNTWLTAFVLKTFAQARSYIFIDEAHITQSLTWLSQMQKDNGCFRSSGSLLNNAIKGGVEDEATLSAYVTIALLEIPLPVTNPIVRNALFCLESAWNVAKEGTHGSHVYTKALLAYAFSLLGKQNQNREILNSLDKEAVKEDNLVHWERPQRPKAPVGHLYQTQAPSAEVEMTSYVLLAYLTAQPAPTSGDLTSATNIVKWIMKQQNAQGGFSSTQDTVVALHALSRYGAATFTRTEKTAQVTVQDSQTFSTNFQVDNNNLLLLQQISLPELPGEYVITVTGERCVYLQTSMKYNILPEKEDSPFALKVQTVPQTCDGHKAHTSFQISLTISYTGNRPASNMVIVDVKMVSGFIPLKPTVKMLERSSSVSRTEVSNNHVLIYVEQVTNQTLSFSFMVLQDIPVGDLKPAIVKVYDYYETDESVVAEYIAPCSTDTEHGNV
UniProt P23219, whole entry, looked up: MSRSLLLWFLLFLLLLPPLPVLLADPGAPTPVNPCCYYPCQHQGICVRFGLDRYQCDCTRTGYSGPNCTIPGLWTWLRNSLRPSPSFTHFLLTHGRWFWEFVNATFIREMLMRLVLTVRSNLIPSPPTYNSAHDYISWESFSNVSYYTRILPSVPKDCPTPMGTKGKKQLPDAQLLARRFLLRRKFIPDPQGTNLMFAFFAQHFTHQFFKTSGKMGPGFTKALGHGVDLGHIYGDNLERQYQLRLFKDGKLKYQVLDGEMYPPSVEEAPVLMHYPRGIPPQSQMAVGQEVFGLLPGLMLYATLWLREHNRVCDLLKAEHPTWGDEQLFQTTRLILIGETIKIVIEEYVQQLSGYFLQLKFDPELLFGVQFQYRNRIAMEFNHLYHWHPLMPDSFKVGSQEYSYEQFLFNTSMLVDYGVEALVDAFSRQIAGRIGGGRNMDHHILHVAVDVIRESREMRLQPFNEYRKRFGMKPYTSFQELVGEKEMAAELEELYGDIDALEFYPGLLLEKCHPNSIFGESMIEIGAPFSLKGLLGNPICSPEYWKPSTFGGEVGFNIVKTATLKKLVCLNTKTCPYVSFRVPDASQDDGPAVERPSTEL
UniProt O95758: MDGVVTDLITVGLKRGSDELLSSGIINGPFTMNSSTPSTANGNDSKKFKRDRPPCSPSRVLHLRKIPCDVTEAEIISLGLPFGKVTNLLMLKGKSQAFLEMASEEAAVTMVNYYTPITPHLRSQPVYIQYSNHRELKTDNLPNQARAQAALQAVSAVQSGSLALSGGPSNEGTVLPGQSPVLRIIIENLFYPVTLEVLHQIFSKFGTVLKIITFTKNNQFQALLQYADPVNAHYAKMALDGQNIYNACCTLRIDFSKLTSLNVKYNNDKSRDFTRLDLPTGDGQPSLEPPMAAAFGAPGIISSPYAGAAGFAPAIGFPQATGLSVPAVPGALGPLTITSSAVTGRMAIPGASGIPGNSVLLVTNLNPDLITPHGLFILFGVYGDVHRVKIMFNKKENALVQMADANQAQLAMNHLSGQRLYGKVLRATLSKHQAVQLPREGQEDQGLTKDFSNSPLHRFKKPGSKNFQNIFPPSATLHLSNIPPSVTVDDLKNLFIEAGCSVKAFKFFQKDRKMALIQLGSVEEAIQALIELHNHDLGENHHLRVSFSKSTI
UniProt P60900, whole entry, looked up: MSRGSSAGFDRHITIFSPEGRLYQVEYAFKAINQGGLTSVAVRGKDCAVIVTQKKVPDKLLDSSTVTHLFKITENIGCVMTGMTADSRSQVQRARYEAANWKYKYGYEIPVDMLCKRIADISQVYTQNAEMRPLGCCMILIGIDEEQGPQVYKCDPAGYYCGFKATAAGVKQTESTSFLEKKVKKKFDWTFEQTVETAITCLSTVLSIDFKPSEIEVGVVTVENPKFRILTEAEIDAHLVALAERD
UniProt Q9H0K6: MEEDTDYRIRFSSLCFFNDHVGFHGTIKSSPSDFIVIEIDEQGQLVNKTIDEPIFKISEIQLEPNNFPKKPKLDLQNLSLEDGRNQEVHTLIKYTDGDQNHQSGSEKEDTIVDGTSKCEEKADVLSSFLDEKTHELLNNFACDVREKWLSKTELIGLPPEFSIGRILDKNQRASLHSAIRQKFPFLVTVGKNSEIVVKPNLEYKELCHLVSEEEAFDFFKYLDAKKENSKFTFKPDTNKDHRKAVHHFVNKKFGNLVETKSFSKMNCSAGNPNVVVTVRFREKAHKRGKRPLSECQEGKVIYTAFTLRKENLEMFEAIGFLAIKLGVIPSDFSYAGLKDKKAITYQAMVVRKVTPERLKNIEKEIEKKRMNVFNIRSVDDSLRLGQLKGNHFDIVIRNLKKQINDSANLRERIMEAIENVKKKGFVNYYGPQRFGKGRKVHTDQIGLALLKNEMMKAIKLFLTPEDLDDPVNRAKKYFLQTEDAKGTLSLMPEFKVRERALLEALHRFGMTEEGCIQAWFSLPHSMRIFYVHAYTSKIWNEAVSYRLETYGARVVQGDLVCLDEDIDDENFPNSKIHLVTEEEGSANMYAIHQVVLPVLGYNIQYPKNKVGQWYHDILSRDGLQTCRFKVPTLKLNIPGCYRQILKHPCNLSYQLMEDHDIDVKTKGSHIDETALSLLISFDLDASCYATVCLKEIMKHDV

What was measured:
Test in all cases: log2 fold change, soluble protein after heating vs DMSO (PISA); higher = thermal stabilisation; K562 cells, 10 uM, 30 min; active = over 0.2 and 3.5 SD of the protein, either way, in both replicates (recomputed)
[1] = compound: CC1=C(C=C(C=C1)NC(=O)C2=CC(=CC=C2)C(C)(C)C#N)NC3=CC4=C(C=C3)N=CN(C4=O)C
Method in brief: (§1)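 K562 cells at 2×10^6 cells/mL were given 10 μM compound for 30 min. Aliquots then went through 3 min of heating across 48°C-58°C, were pooled, and were extracted in PBS with 0.5% NP-40 at 4°C, and the supernatant after 21,000xg for 90 min was quantified by TMTpro 16plex LC-MS/MS with channel sums equalised. Thermal stability relative to control samples, from duplicates, is given as log2 fold change.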

[2] = compound: CC1=C(C=C(C=C1)NC(=O)C2=CC(=CC=C2)N(C)C)NC(=O)C3=CC=C(C=C3)O
Method in brief: as §1

[3] = compound: CC1=CC=C(C=C1)SC2=C3C=C(SC3=CN=C2)C(=O)N
Method in brief: as §1

[4] = compound: CC1=NC(=CC=C1)C2=C(N=C(N2)C(C)(C)C)C3=CC4=NC=CN=C4C=C3
Method in brief: as §1

Nexturastat A = compound: CCCCN(Cc1ccc(C(=O)NO)cc1)C(=O)Nc1ccccc1 [Nexturastat A]
Method in brief: as §1

vemurafenib = compound: CCCS(=O)(=O)Nc1ccc(F)c(C(=O)c2c[nH]c3ncc(-c4ccc(Cl)cc4)cc23)c1F [vemurafenib]
Method in brief: as §1

[5] = compound: CCCS(=O)(=O)Nc1ccc(F)c(C(=O)c2c[nH]c3ncc(Cl)cc23)c1F
Method in brief: as §1

[6] = compound: CCCc1cc(C)[nH]c(=O)c1CNC(=O)c1cc(-c2ccnc(N3CCN(C)CC3)c2)cc2c1cnn2C(C)C
Method in brief: as §1

givinostat = compound: CCN(CC)Cc1ccc2cc(COC(=O)Nc3ccc(C(=O)NO)cc3)ccc2c1 [givinostat]
Method in brief: as §1

barasertib = compound: CCN(CCCOc1ccc2c(Nc3cc(CC(=O)Nc4cccc(F)c4)[nH]n3)ncnc2c1)CCOP(=O)(O)O [barasertib]
Method in brief: as §1

[7] = compound: CC[C@@H]1C(=O)N(C)c2cnc(Nc3ccc(C(=O)NC4CCN(C)CC4)cc3OC)nc2N1C1CCCC1
Method in brief: as §1

volasertib = compound: CC[C@@H]1C(=O)N(C)c2cnc(Nc3ccc(C(=O)N[C@H]4CC[C@H](N5CCN(CC6CC6)CC5)CC4)cc3OC)nc2N1C(C)C [volasertib]
Method in brief: as §1

[8] = compound: CC[C@H](C)N1C=C(C2=C(C=C(C=C21)C3=CN=C(C=C3)N4CCNCC4)C(=O)NCC5=C(C=C(NC5=O)C)C)C
Method in brief: as §1

epoxomicin = compound: CC[C@H](C)[C@@H](C(=O)N[C@@H]([C@@H](C)O)C(=O)N[C@@H](CC(C)C)C(=O)[C@]1(CO1)C)NC(=O)[C@H]([C@@H](C)CC)N(C)C(=O)C [epoxomicin]
Method in brief: as §1

[9] = compound: CCn1c(C(=O)N(C2CC2)C2CC2)cc2c3c(ncn3C)c(Nc3cc(C)n(C)n3)nc21
Method in brief: as §1

[10] = compound: CCn1cc(-c2ccnc3[nH]c(-c4cccc(CN(C)C)c4)cc23)c(-c2ccc(NC(=O)N(C)C)cc2)n1
Method in brief: as §1

[11] = compound: CN(C)CC(=O)Nc1ccc2[nH]c(=O)c3ccccc3c2c1
Method in brief: as §1

rosiglitazone = compound: CN(CCOC1=CC=C(C=C1)C[C@H]2C(=O)NC(=O)S2)C3=CC=CC=N3 (racemic) [rosiglitazone]
Method in brief: as §1

[12] = compound: CN1C2=C(C3=C1C(=O)N(N=C3)CC4=CC(=CC=C4)N)SC(=C2)S(=O)C
Method in brief: as §1

[13] = compound: CN1CCC(CNc2ccc3ncc(-c4cccc(OC(F)(F)F)c4)n3n2)CC1
Method in brief: as §1

Measured: log2 fold change

PSME2 (UniProt Q9UL46)
inactive: [1] 0.014 | [2] -0.053 | [3] 0.007 | [4] 0.035 | Nexturastat A -0.072 | vemurafenib -0.018 | [5] 0.034 | [6] -0.006 | givinostat 0.012 | barasertib 0.039 | [7] -0.002 | volasertib -0.079 | [8] -0.029 | epoxomicin -0.04 | [9] -0.008 | [10] -0.031 | [11] -0.087 | rosiglitazone -0.007 | [12] -0.061 | [13] -0.036

PRTFDC1 (UniProt Q9NRG1)
inactive: [1] -0.036 | [2] 0.019 | [3] 0.01 | [4] -0.033 | Nexturastat A -0.054 | vemurafenib -0.03 | [5] -0.038 | [6] -0.039 | givinostat -0.129 | barasertib 0.011 | [7] -0.004 | volasertib 0.091 | [8] -0.047 | epoxomicin 0 | [9] -0.044 | [10] 0.032 | [11] -0.056 | rosiglitazone 0.007 | [12] -0.054 | [13] -0.042

PTPN11 isoform 1 (UniProt Q06124)
inactive: [1] 0.03 | [2] -0.022 | [3] 0.009 | [4] 0.014 | Nexturastat A -0.084 | vemurafenib 0.028 | [5] 0.013 | [6] -0.004 | givinostat -0.059 | barasertib 0.031 | [7] 0.014 | volasertib -0.05 | [8] 0.02 | epoxomicin 0.054 | [9] -0.018 | [10] -0.044 | [11] -0.012 | rosiglitazone 0.011 | [12] -0.064 | [13] -0.02

PSTPIP2 (UniProt Q9H939)
inactive: [1] -0.011 | [2] -0.031 | [3] -0.004 | [4] 0.027 | Nexturastat A 0.096 | vemurafenib -0.019 | [5] 0.047 | [6] 0.05 | givinostat 0.026 | barasertib 0.042 | [7] 0 | volasertib -0.08 | [8] -0.009 | epoxomicin -0.023 | [9] -0.026 | [10] -0.087 | [11] 0.032 | rosiglitazone -0.011 | [12] -0.024 | [13] 0.108

PTGES2 (UniProt Q9H7Z7)
inactive: [1] -0.019 | [2] -0.001 | [3] 0.022 | [4] 0.014 | Nexturastat A -0.039 | vemurafenib 0.005 | [5] -0.001 | [6] -0.035 | givinostat -0.011 | barasertib 0.002 | [7] -0.021 | volasertib 0.076 | [8] -0.048 | epoxomicin 0.005 | [9] 0.054 | [10] -0.022 | [11] -0.02 | rosiglitazone -0.013 | [12] -0.045 | [13] -0.032

PTER (UniProt Q96BW5)
inactive: [1] -0.027 | [2] 0.04 | [3] 0.051 | [4] 0.009 | Nexturastat A -0.032 | vemurafenib -0.001 | [5] -0.007 | [6] -0.041 | givinostat -0.06 | barasertib 0.001 | [7] 0.03 | volasertib 0.052 | [8] -0.047 | epoxomicin 0.028 | [9] 0.016 | [10] 0.006 | [11] -0.018 | rosiglitazone 0.015 | [12] -0.068 | [13] 0

PSMD14 (UniProt O00487)
inactive: [1] 0.061 | [2] 0.011 | [3] -0.04 | [4] -0.013 | Nexturastat A -0.037 | vemurafenib -0.038 | [5] -0.021 | [6] 0.031 | givinostat -0.06 | barasertib -0.037 | [7] 0.078 | volasertib 0.149 | [8] -0.009 | epoxomicin -0.295 | [9] 0.007 | [10] 0.032 | [11] 0.005 | rosiglitazone 0.016 | [12] 0.049 | [13] 0.042

PXMP2 (UniProt Q9NR77)
inactive: [1] 0.024 | [2] 0.006 | [3] 0.02 | [4] 0.039 | Nexturastat A -0.078 | vemurafenib 0.027 | [5] -0.012 | [6] -0.082 | givinostat 0.03 | barasertib -0.004 | [7] 0.036 | volasertib -0.021 | [8] -0.024 | epoxomicin -0.038 | [9] 0.039 | [10] -0.034 | [11] 0.044 | rosiglitazone -0.016 | [12] -0.025 | [13] 0.017

PTK2 (UniProt Q05397)
inactive: [1] -0.005 | [2] 0.004 | [3] -0.004 | [4] 0.006 | Nexturastat A -0.013 | vemurafenib -0.02 | [5] 0.005 | [6] -0.027 | givinostat 0.14 | barasertib -0.006 | [7] 0.1 | volasertib 0.082 | [8] 0.001 | epoxomicin -0.018 | [9] -0.019 | [10] -0.046 | [11] 0.001 | rosiglitazone 0.028 | [12] -0.032 | [13] -0.01

PZP (UniProt P20742)
inactive: [1] -0.074 | [2] 0.665 | [3] 0.149 | [4] 0.01 | Nexturastat A -0.196 | vemurafenib 0.118 | [5] -0.054 | [6] -0.073 | givinostat 0.033 | barasertib -0.05 | [7] -0.024 | volasertib -0.11 | [8] 0.091 | epoxomicin -0.426 | [9] -0.095 | [10] -0.396 | [11] 0.034 | rosiglitazone 0.042 | [12] 0.102 | [13] -0.107

PTGS1 isoform 6 (UniProt P23219)
inactive: [1] 0.033 | [2] 0.014 | [3] 0.035 | [4] 0.015 | Nexturastat A -0.027 | vemurafenib 0 | [5] -0.023 | [6] 0.066 | givinostat -0.004 | barasertib 0.003 | [7] 0.031 | volasertib 0.06 | [8] 0.013 | epoxomicin -0.003 | [9] 0.065 | [10] 0.029 | [11] -0.056 | rosiglitazone 0.019 | [12] 0.001 | [13] 0.108

PTBP3 isoform 4 (UniProt O95758)
inactive: [1] 0.111 | [2] -0.028 | [3] 0.057 | [4] 0.068 | Nexturastat A 0.004 | vemurafenib 0.074 | [5] 0.144 | [6] 0.048 | givinostat 0.083 | barasertib -0.012 | [7] -0.041 | volasertib -0.234 | [8] 0.086 | epoxomicin 0.027 | [9] 0.018 | [10] -0.016 | [11] 0.034 | rosiglitazone 0.014 | [12] -0.023 | [13] -0.082

PSMA4 (UniProt P25789)
inactive: [1] 0.032 | [2] 0.025 | [3] -0.042 | [4] -0.009 | Nexturastat A -0.04 | vemurafenib -0.01 | [5] -0.054 | [6] -0.011 | givinostat -0.029 | barasertib -0.047 | [7] 0.067 | volasertib 0.151 | [8] -0.038 | epoxomicin -0.126 | [9] 0.025 | [10] 0.09 | [11] -0.028 | rosiglitazone -0.018 | [12] 0.014 | [13] 0.079

PSMA6 (UniProt P60900)
inactive: [1] 0.041 | [2] 0.006 | [3] -0.013 | [4] 0.009 | Nexturastat A -0.013 | vemurafenib -0.05 | [5] -0.009 | [6] -0.022 | givinostat -0.044 | barasertib -0.069 | [7] 0.074 | volasertib 0.109 | [8] -0.031 | epoxomicin -0.184 | [9] 0.009 | [10] 0.007 | [11] -0.027 | rosiglitazone -0.044 | [12] 0.014 | [13] 0.039

PUS7L (UniProt Q9H0K6)
inactive: [1] 0.043 | [2] 0.011 | [3] -0.031 | [4] -0.002 | Nexturastat A -0.006 | vemurafenib -0.001 | [5] 0.015 | [6] -0.035 | givinostat -0.039 | barasertib 0.028 | [7] 0.04 | volasertib -0.038 | [8] 0.028 | epoxomicin -0.034 | [9] 0.015 | [10] 0.046 | [11] -0.005 | rosiglitazone 0.024 | [12] -0.022 | [13] 0.033

Two entries picked at random from the list so far, as already listed:
PSMA6 (UniProt P60900)
inactive: [1] 0.041 | [2] 0.006 | [3] -0.013 | [4] 0.009 | Nexturastat A -0.013 | vemurafenib -0.05 | [5] -0.009 | [6] -0.022 | givinostat -0.044 | barasertib -0.069 | [7] 0.074 | volasertib 0.109 | [8] -0.031 | epoxomicin -0.184 | [9] 0.009 | [10] 0.007 | [11] -0.027 | rosiglitazone -0.044 | [12] 0.014 | [13] 0.039

PSTPIP2 (UniProt Q9H939)
inactive: [1] -0.011 | [2] -0.031 | [3] -0.004 | [4] 0.027 | Nexturastat A 0.096 | vemurafenib -0.019 | [5] 0.047 | [6] 0.05 | givinostat 0.026 | barasertib 0.042 | [7] 0 | volasertib -0.08 | [8] -0.009 | epoxomicin -0.023 | [9] -0.026 | [10] -0.087 | [11] 0.032 | rosiglitazone -0.011 | [12] -0.024 | [13] 0.108
